Reference: US12365732

B1: mAb1.v7.NGS9 IgG (antibody, V domains shown)
VH: EVQLVQSGAEVKKPGASVKVSCKASGFTFTNNFMHWVRQAPGQGLEWIGMIHANSGITNINEKFKNRVTMTTDTSTSTAYMELRSLRSEDTAVYYCRSDGVYEGYFDYWGQGTLVTVSS
VL: DIQLTQSPSSLSASVGDRVTITCKASQNVGTAIVWYQQKPGKAPKVLIYSASTRYTGVPSRFSGSGSGTDFTLTISSLQPEDFATYYCQQYSSSPLTFGQGTKVEIKG
B2: mAb1.v7.NGS11 IgG (antibody, V domains shown)
VH: B1 VH with M50F
VL: B1 VL
B3: h10G1 IgG (humanized 10G1) (antibody, V domains shown)
VH: EIQLVQSGSELKKPGASVKVSCKASGYPFTTYGMSWVRQAPGQGLEWMGWINTDSGVPTYADDFKGRFVFSLDTSVSTAYLQISSLKAEDTAVYFCARNIYYGWGNFDYWGQGTLVTVSS
VL: EIVMTQSPDFQSVTPKEKVTITCRASQDIYRNLHWYQQKPDQTPKLLIKHASDSISGIPSRFSGSGSGTDFTLTINSLEAEDAAAYYCLQGYSMPYTFGGGTKVEIKG

The binders below were run against cynomolgus monkey CD96 on cynomolgus monkey PBMCs (cynomolgus monkey) (assay: FACS).
B1 was tested, and the binding was “binds”.
In the case of B2, the binding is reported as “binds”.
With B3 the binding was “binds”.

Positions count from the first letter of the chain named. No constants are given. Whether binding was seen depends on the method and setting. A result given as binding can be weak or reduced; the word gives no strength.
